From publication PMC8384837 come the findings set out here.

What all share (details): yeast three-hybrid, YBZ-1, SC-Leu-His + 0.5 mM 3-AT, 4 days
The target in assay [1] is T1, PUM1 PUF domain R1-QFR R2-VFQ R6-SWD S863Q + R864F + Q867R + N899V + Y900F + N1043S + Y1044W + Q1047D (UniProt Q14671).
T1 sequence: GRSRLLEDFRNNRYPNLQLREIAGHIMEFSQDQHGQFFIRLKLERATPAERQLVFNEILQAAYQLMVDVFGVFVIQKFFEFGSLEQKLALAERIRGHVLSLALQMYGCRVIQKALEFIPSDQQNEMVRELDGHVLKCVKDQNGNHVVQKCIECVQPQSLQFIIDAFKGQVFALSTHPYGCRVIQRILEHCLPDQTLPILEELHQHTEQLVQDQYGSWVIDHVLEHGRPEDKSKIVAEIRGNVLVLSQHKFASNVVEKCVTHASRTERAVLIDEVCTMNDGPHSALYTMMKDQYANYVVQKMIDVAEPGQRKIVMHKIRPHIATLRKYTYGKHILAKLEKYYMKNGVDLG

Assay [2] has as its target T2, PUM1 PUF domain R1-QFR R2-VFQ R7-NPG S863Q + R864F + Q867R + N899V + Y900F + S1079N + N1080P + E1083G (UniProt Q14671).
T2 sequence: T1 sequence with S216N, W217Y, D220Q, S252N, N253P, E256G

Assay [3] concerns the target T3, PUM1 PUF domain R2-VFQ R3-THE R4-TFR N899V + Y900F + C935T + R936H + Q939E + N971T + H972F + Q975R (UniProt Q14671).
T3 sequence: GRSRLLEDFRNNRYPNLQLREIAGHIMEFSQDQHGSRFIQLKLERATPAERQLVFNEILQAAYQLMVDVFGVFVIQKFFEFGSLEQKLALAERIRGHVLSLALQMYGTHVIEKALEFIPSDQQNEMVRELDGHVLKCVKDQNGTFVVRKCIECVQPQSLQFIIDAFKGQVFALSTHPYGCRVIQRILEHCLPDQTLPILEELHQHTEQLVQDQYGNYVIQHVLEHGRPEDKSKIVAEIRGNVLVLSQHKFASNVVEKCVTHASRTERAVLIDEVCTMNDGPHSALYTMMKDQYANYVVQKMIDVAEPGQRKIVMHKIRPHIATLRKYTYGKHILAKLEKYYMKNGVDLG

The target of assay [4] is T4, PUM1 PUF domain R3-THE R4-TFR C935T + R936H + Q939E + N971T + H972F + Q975R (UniProt Q14671).
T4 sequence: T3 sequence with V72N, F73Y

For assay [5], the target named is T5, PUM1 PUF domain R3-THE R4-TFR R7-NPG C935T + R936H + Q939E + N971T + H972F + Q975R + S1079N + N1080P + E1083G (Homo sapiens) (UniProt Q14671).
T5 sequence: T3 sequence with V72N, F73Y, S252N, N253P, E256G

Assay [6] addresses T6, PUM1 PUF domain R5-PHQ R6-SWD C1007P + R1008H + N1043S + Y1044W + Q1047D (UniProt Q14671).
T6 sequence: T1 sequence with Q36S, F37R, R40Q, V72N, F73Y, C180P, R181H

Assay [7] has as its target T7, PUM1 PUF domain R6-SWD R7-NPG N1043S + Y1044W + Q1047D + S1079N + N1080P + E1083G (Homo sapiens) (UniProt Q14671).
T7 sequence: T1 sequence with Q36S, F37R, R40Q, V72N, F73Y, S252N, N253P, E256G

For assay [8], the target named is T8, PUM1 PUF domain R6-SWD R7-NPG N1043S + Y1044W + Q1047D + S1079N + N1080P + E1083G (UniProt Q14671).
T8 sequence: T1 sequence with Q36S, F37R, R40Q, V72N, F73Y, S252N, N253P, E256G

In assay [9] the target is T9, PUM1 PUF domain R6-AWS N1043A + Y1044W + Q1047S (Homo sapiens) (UniProt Q14671).
T9 sequence: T1 sequence with Q36S, F37R, R40Q, V72N, F73Y, S216A, D220S

Assay [10] has as its target T10, PUM1 PUF domain R6-FRE N1043F + Y1044R + Q1047E (UniProt Q14671).
T10 sequence: T1 sequence with Q36S, F37R, R40Q, V72N, F73Y, S216F, W217R, D220E

The target in assay [11] is T11, PUM1 PUF domain R6-FRS N1043F + Y1044R + Q1047S (UniProt Q14671).
T11 sequence: T1 sequence with Q36S, F37R, R40Q, V72N, F73Y, S216F, W217R, D220S

In assay [12] the target is T12, PUM1 PUF domain R6-NFW Y1044F + Q1047W (UniProt Q14671).
T12 sequence: T1 sequence with Q36S, F37R, R40Q, V72N, F73Y, S216N, W217F, D220W

The target of assay [13] is T13, PUM1 PUF domain R6-RPG N1043R + Y1044P + Q1047G (UniProt Q14671).
T13 sequence: T1 sequence with Q36S, F37R, R40Q, V72N, F73Y, S216R, W217P, D220G

For assay [14], the target named is T14, PUM1 PUF domain R6-RVT N1043R + Y1044V + Q1047T (UniProt Q14671).
T14 sequence: T1 sequence with Q36S, F37R, R40Q, V72N, F73Y, S216R, W217V, D220T

For assay [15], the target named is T15, PUM1 PUF domain R6-SFV N1043S + Y1044F + Q1047V (UniProt Q14671).
T15 sequence: T1 sequence with Q36S, F37R, R40Q, V72N, F73Y, W217F, D220V

Substitutions are numbered along the chain they refer to. Some of the results follow. For some of these results: At the low end of the ranking the order means little. For some of these results: Construct or isoform of the protein are uncertain.

“GGCUAGAACUAGUGGAUCCCCCGGCGCCCGGCGGCUCGAGCCCGGGUAAGUUGACGUCGUCUGCAUGCCGCCGGGCGCCAUGCCUGCAGGUCGACUCUAGAAAACAUG”: the binding signal (log2 enrichment (interaction score)) is -4.61 in [1]; -4.76 in [2]; -5.49 in assay [3]; -6.53 in assay [4]; -1.79 in assay [5]; -8.07 in [6]. Moreover, the binding signal (log2 enrichment (interaction score)) in assay [7] is -0.55.

Regarding “GGCUAGAACUAGUGGAUCCCCCGGCGCCCGGCGGCUCGAGCCCGGGUAAGUGGAUGGAGUCUGCAUGCCGCCGGGCGCCAUGCCUGCAGGUCGACUCUAGAAAACAUG”, the values for the binding signal (log2 enrichment (interaction score)) in assay [1], in assay [2] and in [6] were -6.35, less than -6.1 and less than -7.34, respectively.

Turning to “GGCUAGAACUAGUGGAUCCCCCGGCGCCCGGCGGCUCGAGCCCGGGUAAGUGUAAAUCGUCUGCAUGCCGCCGGGCGCCAUGCCUGCAGGUCGACUCUAGAAAACAUG”, the binding signal (log2 enrichment (interaction score)) in assay [1] is -6.28; in assay [2], -6.35; in [3] it was -6.02; in [4], -5.81; in [5], -1.17; in assay [6], -8.34. Also, the binding signal (log2 enrichment (interaction score)) in [8] was -2.42.

Consider “GGCUAGAACUAGUGGAUCCCCCGGCGCCCGGCGGCUCGAGCCCGGGUAAGUCGAAGUAGUCUGCAUGCCGCCGGGCGCCAUGCCUGCAGGUCGACUCUAGAAAACAUG”, for which the binding signal (log2 enrichment (interaction score)) in assay [1] was -5.09; in assay [2], -5.86; in [3], -5.56; in [4] it was -6.87; in assay [6] it was -7.29; in [7], -1.84.

For “GGCUAGAACUAGUGGAUCCCCCGGCGCCCGGCGGCUCGAGCCCGGGUAAGCUCUAAUUGUCUGCAUGCCGCCGGGCGCCAUGCCUGCAGGUCGACUCUAGAAAACAUG”, the results for the binding signal (log2 enrichment (interaction score)) in assay [1], in assay [2] and in [5] were -5.37, less than -3.11 and less than -1.74, respectively.

As for “GGCUAGAACUAGUGGAUCCCCCGGCGCCCGGCGGCUCGAGCCCGGGUAAGUUGGGGAAGUCUGCAUGCCGCCGGGCGCCAUGCCUGCAGGUCGACUCUAGAAAACAUG”, in assay [1], the binding signal (log2 enrichment (interaction score)) is -4.13.

For the sequence “GGCUAGAACUAGUGGAUCCCCCGGCGCCCGGCGGCUCGAGCCCGGGUAAGUCAGUAGAGUCUGCAUGCCGCCGGGCGCCAUGCCUGCAGGUCGACUCUAGAAAACAUG”, the binding signal (log2 enrichment (interaction score)) in [1] was -5.82; in assay [3] it was -5.19.

“GGCUAGAACUAGUGGAUCCCCCGGCGCCCGGCGGCUCGAGCCCGGGUAAGCUGGCGUAGUCUGCAUGCCGCCGGGCGCCAUGCCUGCAGGUCGACUCUAGAAAACAUG”: the binding signal (log2 enrichment (interaction score)) in assay [1] is -5.25; in assay [2], -5.62; in [4], less than -8.18; in assay [7], -0.75.

Consider “GGCUAGAACUAGUGGAUCCCCCGGCGCCCGGCGGCUCGAGCCCGGGUAAGUGGAAAUAGUCUGCAUGCCGCCGGGCGCCAUGCCUGCAGGUCGACUCUAGAAAACAUG”, for which the binding signal (log2 enrichment (interaction score)) is -6.19 in [1]; -5.38 in assay [2]; -5.58 in [3]; -7 in assay [4]; -1.74 in [5]; -3.79 in assay [9]. For the same sequence, the binding signal (log2 enrichment (interaction score)) in assay [10] was less than -9.06; in assay [11] it was less than -7.06; in assay [12], -5.84; in [13], less than -9.02; in assay [14], less than -8.08; in assay [15], less than -8.64. Besides, the binding signal (log2 enrichment (interaction score)) in assay [7] is -0.48.
